In article PMC6933522 one finds binding data, which are given here for ten molecules.

Chains of the proteins cited; added tags and fusions are not shown. Lines headed by an entry give the natural chain unless they say otherwise; changes in a name come on top.
UniProt Q9Y696: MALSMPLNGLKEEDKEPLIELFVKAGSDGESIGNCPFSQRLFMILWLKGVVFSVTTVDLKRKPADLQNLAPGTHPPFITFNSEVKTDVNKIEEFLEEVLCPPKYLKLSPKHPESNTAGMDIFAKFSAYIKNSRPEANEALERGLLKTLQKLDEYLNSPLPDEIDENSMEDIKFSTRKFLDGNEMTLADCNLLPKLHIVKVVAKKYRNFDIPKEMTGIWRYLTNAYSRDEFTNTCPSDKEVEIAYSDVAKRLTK
UniProt Q01650: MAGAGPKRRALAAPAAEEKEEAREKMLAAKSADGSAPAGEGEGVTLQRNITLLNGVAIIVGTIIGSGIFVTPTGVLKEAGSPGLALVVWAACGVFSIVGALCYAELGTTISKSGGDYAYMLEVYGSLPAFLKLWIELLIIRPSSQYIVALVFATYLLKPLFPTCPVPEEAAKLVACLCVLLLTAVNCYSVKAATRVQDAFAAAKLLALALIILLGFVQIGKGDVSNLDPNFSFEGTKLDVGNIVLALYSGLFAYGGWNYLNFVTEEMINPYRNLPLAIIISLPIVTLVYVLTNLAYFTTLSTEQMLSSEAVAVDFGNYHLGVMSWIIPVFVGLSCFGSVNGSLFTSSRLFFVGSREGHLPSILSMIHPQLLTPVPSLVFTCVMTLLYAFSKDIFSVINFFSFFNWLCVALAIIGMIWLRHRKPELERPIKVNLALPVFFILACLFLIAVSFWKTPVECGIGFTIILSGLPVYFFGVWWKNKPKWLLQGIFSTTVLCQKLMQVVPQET
UniProt P52732: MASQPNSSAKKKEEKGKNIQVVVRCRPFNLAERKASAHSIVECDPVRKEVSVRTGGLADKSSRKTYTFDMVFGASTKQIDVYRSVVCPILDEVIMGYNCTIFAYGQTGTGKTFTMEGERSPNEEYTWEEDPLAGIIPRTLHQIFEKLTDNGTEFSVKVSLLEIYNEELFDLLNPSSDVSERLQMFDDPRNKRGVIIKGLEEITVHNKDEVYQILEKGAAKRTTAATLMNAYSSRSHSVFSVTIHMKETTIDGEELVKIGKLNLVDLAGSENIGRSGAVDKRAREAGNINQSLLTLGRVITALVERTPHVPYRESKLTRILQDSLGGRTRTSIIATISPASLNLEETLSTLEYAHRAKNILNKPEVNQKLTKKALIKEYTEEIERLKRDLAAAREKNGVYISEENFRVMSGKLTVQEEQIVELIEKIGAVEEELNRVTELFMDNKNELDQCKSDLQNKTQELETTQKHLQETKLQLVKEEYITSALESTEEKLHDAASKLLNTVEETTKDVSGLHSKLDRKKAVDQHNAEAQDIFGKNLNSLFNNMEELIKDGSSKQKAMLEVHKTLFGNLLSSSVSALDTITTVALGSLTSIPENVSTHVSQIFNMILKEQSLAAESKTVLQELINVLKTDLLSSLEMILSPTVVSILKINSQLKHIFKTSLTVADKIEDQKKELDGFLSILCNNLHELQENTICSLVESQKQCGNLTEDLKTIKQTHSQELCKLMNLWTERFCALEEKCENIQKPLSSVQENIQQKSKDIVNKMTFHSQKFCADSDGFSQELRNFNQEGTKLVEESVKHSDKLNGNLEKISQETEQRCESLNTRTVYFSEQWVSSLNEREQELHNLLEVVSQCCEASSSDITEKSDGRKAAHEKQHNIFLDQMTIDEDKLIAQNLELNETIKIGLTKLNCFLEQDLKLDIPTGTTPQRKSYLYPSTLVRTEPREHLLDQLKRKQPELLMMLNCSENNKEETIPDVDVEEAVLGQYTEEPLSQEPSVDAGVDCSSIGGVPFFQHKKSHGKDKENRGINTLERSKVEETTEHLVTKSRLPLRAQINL
UniProt P61586: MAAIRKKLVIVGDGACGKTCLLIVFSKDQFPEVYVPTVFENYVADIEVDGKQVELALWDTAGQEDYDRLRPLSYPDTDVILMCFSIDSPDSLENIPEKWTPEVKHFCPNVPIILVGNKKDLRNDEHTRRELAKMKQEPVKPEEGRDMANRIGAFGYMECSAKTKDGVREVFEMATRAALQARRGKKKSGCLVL
UniProt P15311: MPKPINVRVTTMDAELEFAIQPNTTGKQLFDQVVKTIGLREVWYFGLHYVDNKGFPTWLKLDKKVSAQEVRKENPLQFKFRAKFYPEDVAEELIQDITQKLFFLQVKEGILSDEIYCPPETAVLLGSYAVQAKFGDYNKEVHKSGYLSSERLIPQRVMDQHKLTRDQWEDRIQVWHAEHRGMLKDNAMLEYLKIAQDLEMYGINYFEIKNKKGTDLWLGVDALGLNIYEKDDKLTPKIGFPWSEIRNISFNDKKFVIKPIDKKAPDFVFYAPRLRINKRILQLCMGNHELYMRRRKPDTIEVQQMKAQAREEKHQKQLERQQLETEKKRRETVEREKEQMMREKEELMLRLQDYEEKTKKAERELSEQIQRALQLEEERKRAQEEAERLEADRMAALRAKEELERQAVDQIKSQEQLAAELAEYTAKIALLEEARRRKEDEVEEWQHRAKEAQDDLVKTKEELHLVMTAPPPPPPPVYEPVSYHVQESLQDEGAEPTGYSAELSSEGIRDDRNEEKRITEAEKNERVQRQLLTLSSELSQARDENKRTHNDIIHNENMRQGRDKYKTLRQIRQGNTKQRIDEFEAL
UniProt Q8WUM4: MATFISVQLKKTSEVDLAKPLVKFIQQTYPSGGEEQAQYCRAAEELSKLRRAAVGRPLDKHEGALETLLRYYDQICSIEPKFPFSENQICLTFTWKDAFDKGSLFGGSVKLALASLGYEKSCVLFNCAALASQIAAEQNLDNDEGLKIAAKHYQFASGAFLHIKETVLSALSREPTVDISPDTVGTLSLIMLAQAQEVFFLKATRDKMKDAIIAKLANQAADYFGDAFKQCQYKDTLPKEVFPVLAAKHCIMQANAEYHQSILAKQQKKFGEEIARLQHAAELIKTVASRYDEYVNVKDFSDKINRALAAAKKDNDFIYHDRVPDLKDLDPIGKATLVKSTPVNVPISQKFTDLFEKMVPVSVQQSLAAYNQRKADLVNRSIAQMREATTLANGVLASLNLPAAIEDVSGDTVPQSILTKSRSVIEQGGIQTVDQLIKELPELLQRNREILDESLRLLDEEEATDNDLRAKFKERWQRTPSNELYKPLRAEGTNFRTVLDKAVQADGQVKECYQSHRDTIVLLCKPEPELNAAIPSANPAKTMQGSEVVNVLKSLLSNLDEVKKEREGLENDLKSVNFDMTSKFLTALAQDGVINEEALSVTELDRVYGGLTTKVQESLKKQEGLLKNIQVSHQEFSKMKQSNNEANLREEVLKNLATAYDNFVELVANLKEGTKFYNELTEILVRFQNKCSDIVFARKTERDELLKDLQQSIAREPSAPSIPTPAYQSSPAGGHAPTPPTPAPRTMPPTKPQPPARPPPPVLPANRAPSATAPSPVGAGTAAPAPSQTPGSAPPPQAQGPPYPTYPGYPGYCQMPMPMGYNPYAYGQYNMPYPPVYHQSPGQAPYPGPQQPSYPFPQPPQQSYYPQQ

Common to all, as to assay: proximity labelling; BioID: HeLa S3 transfected with mycBirA*-CLIC4 (WT or C35A), 50 uM biotin for 12 h, arrested at monopolar cytokinesis; streptavidin pull-down, on-bead tryptic digestion, LC-MS/MS; proteins found in both replicates and not in the untransfected control
The target in assay [1] is mycBirA*-CLIC4-WT (human) (UniProt Q9Y696).
In assay [2] the target is mycBirA*-CLIC4-C35A (human) (UniProt Q9Y696).
The target of assay [3] is mycBirA*-CLIC4-WT (human) (UniProt Q9Y696). The source holds these as a separate data set.
Assay [4] addresses mycBirA*-CLIC4-C35A (human) (UniProt Q9Y696). This is another data set of the same source.

Read-outs that look alike come from different tables or passages of the source. Results are given in words; binding and its absence hold for the method and conditions named. In cells and extracts the contact can be indirect. Here binding means that the protein was enriched with, or labelled near, the bait; the list need not be complete. For some assays here: No binding means not detected with the bait.

For SLC7A5 (from UniProt Q01650 1-507), the binding entry was “binds” in assay [1] and “no binding” in assay [2].

With KIF11 (from UniProt P52732 1-1056), the binding result was “binds” in assay [1] and “no binding” in assay [2].

RhoA (from UniProt P61586 1-193): the binding result in assay [1] is recorded as “no binding”. Consider ezrin (from UniProt P15311 1-586), for which the binding entry in assay [2] was “no binding”.

On to ALIX (from UniProt Q8WUM4 1-868), for which the binding result is given as “binds” in assay [1] and “no binding” in assay [2].

B1: SLC13A3 (protein, UniProt Q8WWT9 1-602)
chain: MAALAAAAKKVWSARRLLVLLFTPLALLPVVFALPPKEGRCLFVILLMAVYWCTEALPLSVTALLPIVLFPFMGILPSNKVCPQYFLDTNFLFLSGLIMASAIEEWNLHRRIALKILMLVGVQPARLILGMMVTTSFLSMWLSNTASTAMMLPIANAILKSLFGQKEVRKDPSQESEENTAAVRRNGLHTVPTEMQFLASTEAKDHPGETEVPLDLPADSRKEDEYRRNIWKGFLISIPYSASIGGTATLTGTAPNLILLGQLKSFFPQCDVVNFGSWFIFAFPLMLLFLLAGWLWISFLYGGLSFRGWRKNKSEIRTNAEDRARAVIREEYQNLGPIKFAEQAVFILFCMFAILLFTRDPKFIPGWASLFNPGFLSDAVTGVAIVTILFFFPSQRPSLKWWFDFKAPNTETEPLLTWKKAQETVPWNIILLLGGGFAMAKGCEESGLSVWIGGQLHPLENVPPALAVLLITVVIAFFTEFASNTATIIIFLPVLAELAIRLRVHPLYLMIPGTVGCSFAFMLPVSTPPNSIAFASGHLLVKDMVRTGLLMNLMGVLLLSLAMNTWAQTIFQLGTFPDWADMYSVNVTALPPTLANDTFRTL
Regarding B1, the binding result in assay [3] is recorded as “binds”; in assay [4], “no binding”.

B2: Protocadherin alpha-9 (protein, UniProt Q9Y5H5 30-950)
chain: QLHYSVPEEAEHGTFVGRIAQDLGLELAELVPRLFQLDSKGRGDLLEVNLQNGILFVNSRIDREELCGRSAECSIHLEVIVDRPLQVFHVDVEVKDINDNPPVFPATQKNLFIAESRPLDSRFPLEGASDADIGENALLTYRLSPNEYFFLDVPTSNQQVKPLGLVLRKLLDREETPELHLLLTATDGGKPELTGTVQLLITVLDNNDNAPVFDRTLYTVKLPENVSIGTLVIHPNASDLDEGLNGDIIYSFSSDVSPDIKSKFHMDPLSGAITVIGHMDFEESRAHKIPVEAVDKGFPPLAGHCTLLVEVVDVNDNAPQLTIKTLSVPVKEDAQLGTVIALISVIDLDADANGQVTCSLTPHVPFKLVSTYKNYYSLVLDRALDRESVSAYELVVTARDGGSPSLWATARVSVEVADVNDNAPAFAQSEYTVFVKENNPPGCHIFTVSARDADAQENALVSYSLVERRLGERSLSSYVSVHAESGKVYALQPLDHEELELLQFQVSARDAGVPPLGSNVTLQVFVLDENDNAPALLTPRMRGTDGAVSEMVLRSVGAGVVVGKVRAVDADSGYNAWLSYELQPETASASIPFRVGLYTGEISTTRALDETDAPRQRLLVLVKDHGEPALTATATVLVSLVESGQAPKSSSRASVGATGPEVTLVDVNVYLIIAICAVSSLLVLTLLLYTVLRCSAMPTEGECAPGKPTLVCSSAVGSWSYSQQRRQRVCSGEGKQKTDLMAFSPGLSPCAGSTERTGEPSASSDSTGKPRQPNPDWRYSASLRAGMHSSVHLEEAGILRAGPGGPDQQWPTVSSATPEPEAGEVSPPVGAGVNSNSWTFKYGPGNPKQSGPGELPDKFIIPGSPAIISIRQEPTNSQIDKSDFITFGKKEETKKKKKKKKGNKTQEKKEKGNSTTDNSDQ
Take B2: the binding entry in assay [3] is on record as “binds”; in assay [4], “no binding”.

B3: anillin (protein, UniProt Q9NQW6 1-1124)
chain: MDPFTEKLLERTRARRENLQRKMAERPTAAPRSMTHAKRARQPLSEASNQQPLSGGEEKSCTKPSPSKKRCSDNTEVEVSNLENKQPVESTSAKSCSPSPVSPQVQPQAADTISDSVAVPASLLGMRRGLNSRLEATAASSVKTRMQKLAEQRRRWDNDDMTDDIPESSLFSPMPSEEKAASPPRPLLSNASATPVGRRGRLANLAATICSWEDDVNHSFAKQNSVQEQPGTACLSKFSSASGASARINSSSVKQEATFCSQRDGDASLNKALSSSADDASLVNASISSSVKATSPVKSTTSITDAKSCEGQNPELLPKTPISPLKTGVSKPIVKSTLSQTVPSKGELSREICLQSQSKDKSTTPGGTGIKPFLERFGERCQEHSKESPARSTPHRTPIITPNTKAIQERLFKQDTSSSTTHLAQQLKQERQKELACLRGRFDKGNIWSAEKGGNSKSKQLETKQETHCQSTPLKKHQGVSKTQSLPVTEKVTENQIPAKNSSTEPKGFTECEMTKSSPLKITLFLEEDKSLKVTSDPKVEQKIEVIREIEMSVDDDDINSSKVINDLFSDVLEEGELDMEKSQEEMDQALAESSEEQEDALNISSMSLLAPLAQTVGVVSPESLVSTPRLELKDTSRSDESPKPGKFQRTRVPRAESGDSLGSEDRDLLYSIDAYRSQRFKETERPSIKQVIVRKEDVTSKLDEKNNAFPCQVNIKQKMQELNNEINMQQTVIYQASQALNCCVDEEHGKGSLEEAEAERLLLIATGKRTLLIDELNKLKNEGPQRKNKASPQSEFMPSKGSVTLSEIRLPLKADFVCSTVQKPDAANYYYLIILKAGAENMVATPLASTSNSLNGDALTFTTTFTLQDVSNDFEINIEVYSLVQKKDPSGLDKKKKTSKSKAITPKRLLTSITTKSNIHSSVMASPGGLSAVRTSNFALVGSYTLSLSSVGNTKFVLDKVPFLSSLEGHIYLKIKCQVNSSVEERGFLTIFEDVSGFGAWHRRWCVLSGNCISYWTYPDDEKRKNPIGRINLANCTSRQIEPANREFCARRNTFELITVRPQREDDRETLVSQCRDTLCVTKNWLSADTKEERDLWMQKLNQVLVDIRLWQPDACYKPIGKP
As for B3, in assay [4], the binding result is listed as “no binding”.

B4: GP1BB (protein, UniProt P13224 26-206)
chain: CPAPCSCAGTLVDCGRRGLTWASLPTAFPVDTTELVLTGNNLTALPPGLLDALPALRTAHLGANPWRCDCRLVPLRAWLAGRPERAPYRDLRCVAPPALRGRLLPYLAEDELRAACAPGPLCWGALAAQLALLGLGLLHALLLVLLLCRLRRLRARARARAAARLSLTDPLVAERAGTDES
Consider B4, for which the binding entry in assay [3] is “binds”; in assay [4], “no binding”.

B5: SLC25A3 (protein, UniProt Q00325 50-362)
chain: AVEEQYSCDYGSGRFFILCGLGGIISCGTTHTALVPLDLVKCRMQVDPQKYKGIFNGFSVTLKEDGVRGLAKGWAPTFLGYSMQGLCKFGFYEVFKVLYSNMLGEENTYLWRTSLYLAASASAEFFADIALAPMEAAKVRIQTQPGYANTLRDAAPKMYKEEGLKAFYKGVAPLWMRQIPYTMMKFACFERTVEALYKFVVPKPRSECSKPEQLVVTFVAGYIAGVFCAIVSHPADSVVSVLNKEKGSSASLVLKRLGFKGVWKGLFARIIMIGTLTALQWFIYDSVKVYFRLPRPPPPEMPESLKKKLGLTQ
For the molecule B5, the binding entry is recorded as “binds” in assay [3] and “no binding” in assay [4].
